{
  "source": "patent US9528155B2",
  "about": "“In vitro method for determining immunotoxicity of a compound” (UNIVERSITEIT MAASTRICHT, priority 2012, dated 2016)",
  "type_in_all_cases": "cell-based, human",
  "conditions_in_all_cases": "6 h exposure at sub-cytotoxic exposure conc. of Tables 1/2, vs vehicle control, N=3, below -1.0 = underexpression",
  "key": {"[1]": {"tested_on": "HMGCS1", "assay": "Fluidigm multiplex real-time quantitative PCR of marker gene HMGCS1 in exposed Jurkat cells"}, "[2]": {"tested_on": "CRIM1", "assay": "Fluidigm multiplex real-time quantitative PCR of marker gene CRIM1 in exposed Jurkat cells"}, "[3]": {"tested_on": "CHAC1", "assay": "Fluidigm multiplex real-time quantitative PCR of marker gene CHAC1 in exposed Jurkat cells"}},
  "data": [
    {"smiles": "NS(=O)(=O)c1cc(C(=O)O)c(NCc2ccco2)cc1Cl", "note": "[FURO, furosemide]", "values": [
      {"measurement": "Expression levels of marker genes upon exposure: HMGCS1 (Fold Change)", "setting": "[1]", "result": "1.1 ± 0.2"},
      {"measurement": "Expression levels of marker genes upon exposure: CRIM1 (Fold Change)", "setting": "[2]", "result": "1.4 ± 0.5"},
      {"measurement": "Expression levels of marker genes upon exposure: CHAC1 (Fold Change)", "setting": "[3]", "result": "1.6 ± 1.6"}
    ]}
  ]
}
